# PubChem BioAssay AID504834 (National Center for Advancing Translational Sciences (NCATS), 2011)
# Screen size: about 320,000 compounds; about 22,000 (6.9%) were called active. This list was built around the results that the source calls inconclusive (neither active nor inactive); the mix of calls is not that of the screen. The call rests on the fitted dose curve; in most records, active means well fitted inhibition curve with a large enough effect; inconclusive means small, poorly fitted or top-dose-only effect, or another doubt; inactive means no such curve, though single readings can be large or run the other way. Potencies beside an inconclusive call are fits to weak or partial responses and may not hold up.
# Experiment: Primary qHTS for delayed death inhibitors of the malarial parasite plastid, 96 hour incubation
# Conditions: P. falciparum luciferase reporter growth; series mostly up to 28.7 µM
# Method in brief: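 Two-generation exposure (96 h) targets delayed-death phenotype. Reporter parasites carrying integrated firefly luciferase, in red cells at 2% hematocrit and 0.05% parasitemia final, kept at 37 C, 5% CO2; luminescence loss indicates inhibition.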
# Potency means the concentration at half of the fitted maximal effect.
row,Structure (SMILES),Potency
1,COc1ccc(C(CCNCc2ccccc2F)c2ccc(F)cc2)cc1 (stereo unspecified),"inconclusive: 2.94 µM [inhibitor, full curve]"
2,CC1CC(=O)N(CC(=O)NCc2ccc3c(c2)OCO3)c2ccccc2S1 (stereo unspecified),"inconclusive: 0.415 µM [inhibitor, partial curve, poor fit]"
3,Cc1ccnc2nc(C(=O)OCC(=O)c3c[nH]c4ccccc34)nn12,inactive
4,CCOC(=O)c1sc(C)c2c1NC(C)(c1ccccc1)NC2=O (stereo unspecified),"inconclusive: 2.33 µM [inhibitor, full curve, poor fit]"
5,Cc1cccc(NC(=O)CS(=O)CC(=O)Nc2cnc3ccccc3c2)c1C (stereo unspecified),"inconclusive: 13.1 µM [inhibitor, partial curve]"
6,O=C(COC(=O)CCc1nc2ccccc2s1)Nc1ncc(Cl)cc1Cl,inactive
7,O=C(c1ccccc1)[C@H]1[C@H](c2ccccc2)[C@@]2(N=C(c3ccccc3)OC2=O)C2c3ccccc3C=NN21 (stereo partly specified),"inconclusive: 0.0465 µM [inhibitor, full curve, poor fit]"
8,CCC1(C)Cc2ccccc2-c2nc(NCCCO)[nH]c(=O)c21 (stereo unspecified),inactive
9,N=c1c2c(-c3ccccc3)c(-c3ccccc3)n(Cc3ccccc3)c2ncn1CCCO,active: 4.65 µM
10,CC1(OC(=O)CCc2ccccc2)C(=O)C=C2C=C(c3ccc(C#N)cc3)N(Cc3ccccc3)C=C2C1=O (stereo unspecified),"inconclusive: 18.5 µM [inhibitor, single point]"
11,Cc1cc(=O)[nH]c(SCC(=O)c2ccc(F)c(C)c2)n1,active: 0.262 µM
12,Cc1nc(SCc2cccc(Oc3ccccc3)c2)n[nH]1,"inconclusive: 18.5 µM [inhibitor, single point]"
13,O=C(NC1CCCc2c1cnn2-c1cc(F)cc(F)c1)c1ccncc1 (stereo unspecified),"inconclusive: 18.5 µM [inhibitor, single point]"
14,O=C(NCCCNC(=O)c1cnccn1)c1ccc(Br)cc1,"inconclusive: 2.08 µM [inhibitor, partial curve, poor fit]"
15,Cc1onc(-c2ccccc2)c1C(=O)Nc1ccc(C(=O)N2CCCCC2)cc1,"inconclusive: 18.5 µM [inhibitor, single point]"
16,Cn1c(=O)[nH]c(=O)c2c1nc(CN1CCN(c3cccc(Cl)c3)CC1)n2Cc1ccccc1Cl,"inconclusive: 2.94 µM [inhibitor, single point]"
17,Cc1cc(Cl)ccc1OCC(=O)N(Cc1ccco1)C1CCS(=O)(=O)C1 (stereo unspecified),"inconclusive: 0.0928 µM [inhibitor, full curve, poor fit]"
18,Cc1ccc(N2CC(C(=O)N3CCC(c4nc5ccccc5[nH]4)CC3)CC2=O)cc1C (stereo unspecified),active: 10.4 µM
19,CCSc1nc2cc(OC)c(OC)cc2c(=O)n1CCc1ccccc1,"inconclusive: 4.65 µM [inhibitor, partial curve, poor fit]"
20,CC12CC3CC(C)(C1)CC(C(=O)NC(=S)N1CCOCC1)(C3)C2,"inconclusive: 10.4 µM [inhibitor, partial curve]"
21,NC(=O)c1nsc(C(=O)N(Cc2cccnc2)C(C(=O)NC2CCCCC2)c2ccc(F)cc2)c1N (stereo unspecified),inactive
22,COC(=O)c1cccc(NC(=O)COc2cccc([N+](=O)[O-])c2)c1,inactive
23,O=S(=O)(Cc1ccccc1)N1CCN(Cc2ccc(Br)cc2)CC1,"inconclusive: 18.5 µM [inhibitor, single point]"
24,O=C(NC(=O)N1CCSCC1)c1c(Cl)cccc1Cl,"inconclusive: 0.415 µM [inhibitor, full curve, poor fit]"

row,Structure (SMILES),Potency
1,O=C(CSc1ccccn1)Nc1ccc2c(c1)CCC2,inactive
2,CCn1cnc2c(NCCc3cccnc3)nc(C#N)nc21,"inconclusive: 16.5 µM [inhibitor, single point]"
3,O=C(c1cccc(S(=O)(=O)Nc2ccccc2Cl)c1)N1CCN(c2ccccc2O)CC1,"inconclusive: 11.7 µM [inhibitor, single point]"
4,CCC(C(=O)NC1CCCC1)N(Cc1ccco1)C(=O)Cn1nnc(-c2ccc(C)cc2)n1 (stereo unspecified),active: 9.28 µM
5,CNC(=O)C(=O)N/N=C/c1cccnc1,"inconclusive: 20.8 µM [inhibitor, partial curve, poor fit]"
6,Cc1ccccc1OCC(=O)OCC(=O)c1ccc(OCc2ccccc2)cc1,inactive
7,CC(=O)c1c(C)[nH]c(C(=O)Nc2ccc(S(=O)(=O)N(C)C)cc2)c1C,active: 13.1 µM
8,OCC[C@@H]1C[C@H](O)[C@@H](O)[C@]2(Cc3ccccc3CO2)O1,inactive
9,Cc1c(C#N)c2ncnc(-c3ccccc3)c2n1-c1ccccc1,inactive
10,COc1ccc(CNC(=O)CCSCc2ccccc2C)cc1,active: 3.29 µM
11,CN1CCN(C(=O)Nc2ccc3c(c2)N(C)C(=O)c2ccccc2S3)CC1,inactive
12,O=C(NCC(F)(F)F)c1ccc(S(=O)(=O)N2CCN(C(=O)C3CCCO3)CC2)cc1 (stereo unspecified),"inconclusive: 4.15 µM [inhibitor, partial curve, poor fit]"
13,CCN1CCN(C(=O)CCn2c(=O)c3cccn3c3cccnc32)CC1,"inconclusive: 4.65 µM [inhibitor, partial curve, poor fit]"
14,Cc1cccc(C2c3[nH]c4ccccc4c3CCN2C(=O)c2cc(C(C)C)nc(N)n2)n1 (stereo unspecified),"inconclusive: 0.147 µM [inhibitor, full curve, poor fit]"
15,Cc1cccc(/C=N/n2c(-c3ccccn3)n[nH]c2=S)c1,inactive
16,Cc1cccc(N(CC(=O)Nc2ccccc2F)S(C)(=O)=O)c1,active: 5.22 µM
17,COc1ccc(C(=O)Nc2sc3c(c2C(=O)NCc2ccco2)CCCC3)cc1OC,active: 3.29 µM
18,CN(C)c1oc(-c2ccccc2)nc1C#N,"inconclusive: 16.5 µM [inhibitor, single point]"
19,CC1=NN(c2nc(C)cc(C)n2)C(=O)C1CCC(C)C (stereo unspecified),"inconclusive: 13.1 µM [inhibitor, partial curve, poor fit]"
20,CCn1c(/C=C/Nc2ccccc2)[n+](CC)c2cc(Cl)c(Cl)cc21,"inconclusive: 16.5 µM [inhibitor, partial curve, poor fit]"
21,COc1ccc(NC(=O)c2cc(-c3ccco3)on2)cc1,"inconclusive: 7.38 µM [inhibitor, single point]"
22,CCCNC(=O)CN1CCN(c2cc3ccccc3c(Cl)n2)CC1,"inconclusive: 9.28 µM [inhibitor, partial curve, poor fit]"
23,COc1ccc(C2=NNC(=Nc3cc(S(=O)(=O)N(C)C)ccc3C)SC2)c(OC)c1,inactive
24,O=C1c2ccccc2NC(c2cccc(O)c2)N1O (stereo unspecified),inactive

# Arranged by molar mass (low to high): 15 of the compounds above
row,Structure (SMILES),Potency
18,CN(C)c1oc(-c2ccccc2)nc1C#N,"inconclusive: 16.5 µM [inhibitor, single point]"
19,CC1=NN(c2nc(C)cc(C)n2)C(=O)C1CCC(C)C (stereo unspecified),"inconclusive: 13.1 µM [inhibitor, partial curve, poor fit]"
21,COc1ccc(NC(=O)c2cc(-c3ccco3)on2)cc1,"inconclusive: 7.38 µM [inhibitor, single point]"
2,CCn1cnc2c(NCCc3cccnc3)nc(C#N)nc21,"inconclusive: 16.5 µM [inhibitor, single point]"
15,Cc1cccc(/C=N/n2c(-c3ccccn3)n[nH]c2=S)c1,inactive
9,Cc1c(C#N)c2ncnc(-c3ccccc3)c2n1-c1ccccc1,inactive
10,COc1ccc(CNC(=O)CCSCc2ccccc2C)cc1,active: 3.29 µM
16,Cc1cccc(N(CC(=O)Nc2ccccc2F)S(C)(=O)=O)c1,active: 5.22 µM
13,CCN1CCN(C(=O)CCn2c(=O)c3cccn3c3cccnc32)CC1,"inconclusive: 4.65 µM [inhibitor, partial curve, poor fit]"
20,CCn1c(/C=C/Nc2ccccc2)[n+](CC)c2cc(Cl)c(Cl)cc21,"inconclusive: 16.5 µM [inhibitor, partial curve, poor fit]"
7,CC(=O)c1c(C)[nH]c(C(=O)Nc2ccc(S(=O)(=O)N(C)C)cc2)c1C,active: 13.1 µM
14,Cc1cccc(C2c3[nH]c4ccccc4c3CCN2C(=O)c2cc(C(C)C)nc(N)n2)n1 (stereo unspecified),"inconclusive: 0.147 µM [inhibitor, full curve, poor fit]"
12,O=C(NCC(F)(F)F)c1ccc(S(=O)(=O)N2CCN(C(=O)C3CCCO3)CC2)cc1 (stereo unspecified),"inconclusive: 4.15 µM [inhibitor, partial curve, poor fit]"
4,CCC(C(=O)NC1CCCC1)N(Cc1ccco1)C(=O)Cn1nnc(-c2ccc(C)cc2)n1 (stereo unspecified),active: 9.28 µM
3,O=C(c1cccc(S(=O)(=O)Nc2ccccc2Cl)c1)N1CCN(c2ccccc2O)CC1,"inconclusive: 11.7 µM [inhibitor, single point]"

# (further entries)

row,Structure (SMILES),Potency
1,COC(=O)c1c(NC(=O)COC(=O)c2ccc(Cl)nc2)sc(C)c1C,inactive
2,O=C1CC(N2CCCCC2)C(=O)N1c1ccccc1 (stereo unspecified),"inconclusive: 0.0738 µM [inhibitor, full curve, poor fit]"
3,CC(CCc1ccccc1)NC(=O)CSc1ccccn1 (stereo unspecified),"inconclusive: 2.33 µM [inhibitor, partial curve, poor fit]"
4,Cc1ccc(C(=O)NCC(c2ccco2)N2CCc3ccccc32)cc1 (stereo unspecified),"inconclusive: 18.5 µM [inhibitor, single point]"
5,CN1CCc2nc(NC(=O)c3cccc(OC(F)F)c3)sc2C1,"inconclusive: 0.0465 µM [inhibitor, partial curve, poor fit]"
6,C=CCNC(=S)Nc1sc2c(c1C(=O)OCC)CC(C)(CC)OC2 (stereo unspecified),inactive
7,CC(=O)NC(CCS(C)(=O)=O)C(=O)Nc1ccc2c(c1)OCCO2 (stereo unspecified),"inconclusive: 8.28 µM [inhibitor, partial curve, poor fit]"
8,O=C(NCc1ccccc1CN1CCCC1)c1cccc(S(=O)(=O)Nc2ccc(F)cc2)c1,active: 10.4 µM
9,CC(NC(=O)C(=O)N/N=C/c1ccccc1)c1ccccc1 (stereo unspecified),inactive
10,O=S(=O)(NC(=S)NC1CCCCC1)c1ccc(Cl)cc1,active: 0.522 µM
11,CCN(CC)CCNC(=O)Cn1cnc2sc(C)c(S(=O)(=O)N3CCOCC3)c2c1=O,"inconclusive: 2.94 µM [inhibitor, partial curve, poor fit]"
12,O=C(Cc1ccc(F)cc1)N1CCC(CC2CC(c3cccc(Br)c3)=NO2)(C(=O)NCC2CCCCC2)CC1 (stereo unspecified),active: 1.17 µM
13,Cc1cc(C)cc(NC(=O)CSc2nc(N)c(NC(=O)c3ccc(Br)o3)c(=O)[nH]2)c1,"inconclusive: 18.5 µM [inhibitor, single point]"
14,O=C(Nc1ccc(Cl)cc1F)C1CCCN(C2=NS(=O)(=O)c3ccccc32)C1 (stereo unspecified),"inconclusive: 10.4 µM [inhibitor, single point]"
15,COc1cc(/C=N/n2cnnc2)ccc1OC(=O)c1ccco1,inactive
16,CC(c1ccco1)N(C(=O)c1ccccc1F)c1ccccn1 (stereo unspecified),inactive
17,CC1CCC(NC(=O)c2cccc(S(=O)(=O)N3CCN(c4ccccc4)CC3)c2)CC1 (stereo unspecified),inactive
18,Cc1cccc(N=C2NC(=O)/C(=C\c3cccs3)S2)c1,inactive
19,Cc1ccc(CNC(=O)C2(S(=O)(=O)c3ccccc3)CC=CC2)cc1,inactive
20,Cc1ccccc1Cn1nc(C)c(NC(=O)C2(C)CC2(Cl)Cl)c1C (stereo unspecified),"inconclusive: 18.5 µM [inhibitor, single point]"
21,COc1ccc(NC(=S)NCCCCCC(=O)C[N+](=O)[O-])cc1,"inconclusive: 18.5 µM [inhibitor, single point]"
22,O=C(Nc1cnn(Cc2ccc(Cl)cc2)c1)c1ccc([N+](=O)[O-])cc1,"inconclusive: 0.233 µM [inhibitor, full curve, poor fit]"
23,O=C(c1ccccc1NS(=O)(=O)c1cccc2cccnc12)N1CCOCC1,"inconclusive: 18.5 µM [inhibitor, single point]"
